According to the supplement of paper PMC10849652:
The other results are listed elsewhere or left out.

Chains of the proteins cited; added tags and fusions are not shown. Lines headed by an entry give the natural chain unless they say otherwise; changes in a name come on top.
UniProt Q8NI36: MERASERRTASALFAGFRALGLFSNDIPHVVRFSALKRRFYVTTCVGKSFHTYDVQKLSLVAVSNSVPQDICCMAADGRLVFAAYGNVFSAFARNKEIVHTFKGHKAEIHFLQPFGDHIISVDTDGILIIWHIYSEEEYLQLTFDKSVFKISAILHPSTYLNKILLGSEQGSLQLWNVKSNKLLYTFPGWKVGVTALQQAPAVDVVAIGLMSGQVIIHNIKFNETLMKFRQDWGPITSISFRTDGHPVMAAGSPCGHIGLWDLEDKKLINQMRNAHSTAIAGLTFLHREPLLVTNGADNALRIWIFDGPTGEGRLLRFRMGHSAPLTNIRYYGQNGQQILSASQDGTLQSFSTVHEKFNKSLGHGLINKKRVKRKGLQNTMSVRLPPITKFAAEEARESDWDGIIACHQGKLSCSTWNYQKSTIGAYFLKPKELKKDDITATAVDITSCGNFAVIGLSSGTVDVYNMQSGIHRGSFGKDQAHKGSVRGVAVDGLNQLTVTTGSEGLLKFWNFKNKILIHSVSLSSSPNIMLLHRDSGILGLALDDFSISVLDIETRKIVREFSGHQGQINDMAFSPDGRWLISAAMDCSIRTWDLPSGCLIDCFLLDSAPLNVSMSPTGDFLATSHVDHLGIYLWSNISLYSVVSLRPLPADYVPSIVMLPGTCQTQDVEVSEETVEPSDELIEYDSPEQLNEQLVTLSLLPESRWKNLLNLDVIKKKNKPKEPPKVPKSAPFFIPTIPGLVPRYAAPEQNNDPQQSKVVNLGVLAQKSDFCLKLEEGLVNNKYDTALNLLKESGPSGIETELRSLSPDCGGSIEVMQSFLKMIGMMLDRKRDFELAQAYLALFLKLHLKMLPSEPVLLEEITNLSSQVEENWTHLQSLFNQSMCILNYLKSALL
UniProt Q9H1Z4: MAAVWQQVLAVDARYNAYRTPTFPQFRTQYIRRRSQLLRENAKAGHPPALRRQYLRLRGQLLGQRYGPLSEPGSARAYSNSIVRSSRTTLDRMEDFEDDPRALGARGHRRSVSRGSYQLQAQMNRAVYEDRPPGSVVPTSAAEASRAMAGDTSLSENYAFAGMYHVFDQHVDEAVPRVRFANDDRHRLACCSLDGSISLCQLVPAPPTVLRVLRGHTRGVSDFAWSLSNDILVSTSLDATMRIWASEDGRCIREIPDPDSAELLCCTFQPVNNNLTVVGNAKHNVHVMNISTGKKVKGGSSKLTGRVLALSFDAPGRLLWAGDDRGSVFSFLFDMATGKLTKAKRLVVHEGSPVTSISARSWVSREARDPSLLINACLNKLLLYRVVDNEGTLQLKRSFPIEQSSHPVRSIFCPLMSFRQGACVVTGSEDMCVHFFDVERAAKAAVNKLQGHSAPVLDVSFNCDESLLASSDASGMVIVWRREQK
UniProt P23381: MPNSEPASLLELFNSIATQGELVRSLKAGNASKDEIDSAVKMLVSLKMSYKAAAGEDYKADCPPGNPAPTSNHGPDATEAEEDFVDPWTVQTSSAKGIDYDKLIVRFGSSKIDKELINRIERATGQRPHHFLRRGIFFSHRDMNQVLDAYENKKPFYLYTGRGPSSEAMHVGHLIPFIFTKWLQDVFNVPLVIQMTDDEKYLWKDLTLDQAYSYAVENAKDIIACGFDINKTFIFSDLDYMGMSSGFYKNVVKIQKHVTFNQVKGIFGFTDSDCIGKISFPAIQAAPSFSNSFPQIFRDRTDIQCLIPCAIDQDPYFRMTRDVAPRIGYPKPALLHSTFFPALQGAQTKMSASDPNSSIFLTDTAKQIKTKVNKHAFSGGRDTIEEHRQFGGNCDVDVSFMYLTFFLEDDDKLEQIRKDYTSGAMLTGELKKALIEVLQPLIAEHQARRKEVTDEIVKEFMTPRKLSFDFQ
UniProt Q8IWB7: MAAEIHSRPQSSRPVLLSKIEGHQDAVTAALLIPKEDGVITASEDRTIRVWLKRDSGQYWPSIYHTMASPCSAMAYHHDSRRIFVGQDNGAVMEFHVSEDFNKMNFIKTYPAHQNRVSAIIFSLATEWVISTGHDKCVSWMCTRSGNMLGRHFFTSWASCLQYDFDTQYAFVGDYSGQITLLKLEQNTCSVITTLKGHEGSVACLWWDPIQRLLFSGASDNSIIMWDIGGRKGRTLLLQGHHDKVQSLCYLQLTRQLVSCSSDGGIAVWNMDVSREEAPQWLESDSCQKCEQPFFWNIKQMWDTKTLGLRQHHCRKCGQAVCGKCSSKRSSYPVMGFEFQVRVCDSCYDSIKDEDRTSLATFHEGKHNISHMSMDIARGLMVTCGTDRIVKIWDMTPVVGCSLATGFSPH
UniProt Q9Y2W2: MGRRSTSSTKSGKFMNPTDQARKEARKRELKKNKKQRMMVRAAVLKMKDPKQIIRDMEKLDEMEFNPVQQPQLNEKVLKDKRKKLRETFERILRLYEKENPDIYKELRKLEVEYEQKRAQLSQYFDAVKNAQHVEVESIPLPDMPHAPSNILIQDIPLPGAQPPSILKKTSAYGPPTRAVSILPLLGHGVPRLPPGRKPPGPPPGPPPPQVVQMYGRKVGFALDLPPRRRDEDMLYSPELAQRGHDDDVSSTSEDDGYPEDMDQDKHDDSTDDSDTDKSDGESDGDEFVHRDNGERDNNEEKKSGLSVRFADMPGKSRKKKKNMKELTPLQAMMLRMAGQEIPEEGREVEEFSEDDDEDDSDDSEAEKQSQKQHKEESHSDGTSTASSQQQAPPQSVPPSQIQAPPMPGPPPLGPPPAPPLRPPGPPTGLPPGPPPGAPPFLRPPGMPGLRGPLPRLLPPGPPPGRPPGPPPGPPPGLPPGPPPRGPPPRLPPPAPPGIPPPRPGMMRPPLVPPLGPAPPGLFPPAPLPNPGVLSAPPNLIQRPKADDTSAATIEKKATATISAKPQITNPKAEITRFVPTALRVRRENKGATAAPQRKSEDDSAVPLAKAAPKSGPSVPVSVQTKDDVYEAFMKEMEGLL
UniProt Q5MNZ6: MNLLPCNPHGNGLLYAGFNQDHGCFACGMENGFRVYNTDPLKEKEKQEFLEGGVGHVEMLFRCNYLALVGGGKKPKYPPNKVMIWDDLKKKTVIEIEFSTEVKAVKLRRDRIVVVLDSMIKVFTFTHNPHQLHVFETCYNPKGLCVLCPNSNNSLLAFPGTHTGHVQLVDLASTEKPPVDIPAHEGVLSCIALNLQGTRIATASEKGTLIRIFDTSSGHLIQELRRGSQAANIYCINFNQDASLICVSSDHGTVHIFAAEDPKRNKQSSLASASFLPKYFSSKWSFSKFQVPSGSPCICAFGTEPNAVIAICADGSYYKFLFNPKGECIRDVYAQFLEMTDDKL
UniProt Q96FK6: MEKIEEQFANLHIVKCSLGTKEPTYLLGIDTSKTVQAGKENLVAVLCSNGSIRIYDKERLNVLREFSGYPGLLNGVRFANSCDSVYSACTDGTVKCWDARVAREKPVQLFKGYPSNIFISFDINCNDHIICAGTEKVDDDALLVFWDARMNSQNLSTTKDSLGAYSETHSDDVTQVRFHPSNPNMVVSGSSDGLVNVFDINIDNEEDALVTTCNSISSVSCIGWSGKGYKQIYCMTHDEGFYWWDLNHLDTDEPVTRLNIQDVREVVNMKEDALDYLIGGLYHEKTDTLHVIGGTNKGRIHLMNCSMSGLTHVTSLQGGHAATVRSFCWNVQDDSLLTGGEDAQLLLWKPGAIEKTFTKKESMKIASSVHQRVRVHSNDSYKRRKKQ
UniProt Q9P2S5: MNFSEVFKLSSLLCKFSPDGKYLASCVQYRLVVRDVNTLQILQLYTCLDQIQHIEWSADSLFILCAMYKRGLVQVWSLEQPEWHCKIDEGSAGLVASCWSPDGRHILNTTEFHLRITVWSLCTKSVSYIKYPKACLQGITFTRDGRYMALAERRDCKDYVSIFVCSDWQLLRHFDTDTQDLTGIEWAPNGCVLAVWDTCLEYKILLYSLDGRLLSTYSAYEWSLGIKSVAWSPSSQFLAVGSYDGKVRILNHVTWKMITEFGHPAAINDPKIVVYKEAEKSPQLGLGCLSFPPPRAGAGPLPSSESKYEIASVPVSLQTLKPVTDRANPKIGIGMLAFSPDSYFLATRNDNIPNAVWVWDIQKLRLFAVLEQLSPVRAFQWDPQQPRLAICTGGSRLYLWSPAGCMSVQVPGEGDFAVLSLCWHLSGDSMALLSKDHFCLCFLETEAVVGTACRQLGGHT
UniProt Q9Y277: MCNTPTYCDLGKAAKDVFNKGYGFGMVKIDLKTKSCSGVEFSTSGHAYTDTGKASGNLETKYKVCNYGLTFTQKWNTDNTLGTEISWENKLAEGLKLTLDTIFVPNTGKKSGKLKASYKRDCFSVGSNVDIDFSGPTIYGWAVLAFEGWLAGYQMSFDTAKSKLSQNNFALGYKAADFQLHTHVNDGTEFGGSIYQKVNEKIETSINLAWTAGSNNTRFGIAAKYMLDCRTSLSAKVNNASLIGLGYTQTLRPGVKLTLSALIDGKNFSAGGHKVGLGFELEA
UniProt Q8TBZ3: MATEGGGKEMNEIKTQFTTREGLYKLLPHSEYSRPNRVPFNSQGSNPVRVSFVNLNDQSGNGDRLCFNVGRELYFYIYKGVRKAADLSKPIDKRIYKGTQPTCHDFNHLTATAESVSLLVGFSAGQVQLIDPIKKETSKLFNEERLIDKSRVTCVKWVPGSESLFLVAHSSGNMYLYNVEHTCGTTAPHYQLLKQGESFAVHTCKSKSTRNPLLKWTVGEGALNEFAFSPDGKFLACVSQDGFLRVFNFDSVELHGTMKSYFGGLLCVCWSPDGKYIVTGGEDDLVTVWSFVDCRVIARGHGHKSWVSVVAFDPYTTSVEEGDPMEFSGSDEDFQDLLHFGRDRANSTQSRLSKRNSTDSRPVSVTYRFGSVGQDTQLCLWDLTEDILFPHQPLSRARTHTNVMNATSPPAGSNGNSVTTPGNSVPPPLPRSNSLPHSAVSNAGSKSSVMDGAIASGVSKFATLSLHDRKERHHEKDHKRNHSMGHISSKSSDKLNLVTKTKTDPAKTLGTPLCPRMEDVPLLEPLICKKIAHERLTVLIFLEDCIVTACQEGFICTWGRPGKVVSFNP
UniProt Q14119: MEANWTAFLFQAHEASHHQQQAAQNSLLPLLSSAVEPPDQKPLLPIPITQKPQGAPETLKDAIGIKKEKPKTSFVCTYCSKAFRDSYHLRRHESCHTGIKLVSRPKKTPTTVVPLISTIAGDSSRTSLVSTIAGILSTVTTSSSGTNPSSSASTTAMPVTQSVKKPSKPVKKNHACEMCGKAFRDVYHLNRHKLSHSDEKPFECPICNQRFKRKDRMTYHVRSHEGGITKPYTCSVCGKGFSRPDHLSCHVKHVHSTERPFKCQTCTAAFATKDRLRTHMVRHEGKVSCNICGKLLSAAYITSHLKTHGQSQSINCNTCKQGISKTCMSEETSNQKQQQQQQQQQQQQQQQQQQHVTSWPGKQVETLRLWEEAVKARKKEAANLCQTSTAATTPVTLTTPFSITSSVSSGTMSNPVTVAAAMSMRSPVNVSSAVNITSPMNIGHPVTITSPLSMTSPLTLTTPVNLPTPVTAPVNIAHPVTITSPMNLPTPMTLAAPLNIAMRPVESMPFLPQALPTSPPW
UniProt Q96EX3: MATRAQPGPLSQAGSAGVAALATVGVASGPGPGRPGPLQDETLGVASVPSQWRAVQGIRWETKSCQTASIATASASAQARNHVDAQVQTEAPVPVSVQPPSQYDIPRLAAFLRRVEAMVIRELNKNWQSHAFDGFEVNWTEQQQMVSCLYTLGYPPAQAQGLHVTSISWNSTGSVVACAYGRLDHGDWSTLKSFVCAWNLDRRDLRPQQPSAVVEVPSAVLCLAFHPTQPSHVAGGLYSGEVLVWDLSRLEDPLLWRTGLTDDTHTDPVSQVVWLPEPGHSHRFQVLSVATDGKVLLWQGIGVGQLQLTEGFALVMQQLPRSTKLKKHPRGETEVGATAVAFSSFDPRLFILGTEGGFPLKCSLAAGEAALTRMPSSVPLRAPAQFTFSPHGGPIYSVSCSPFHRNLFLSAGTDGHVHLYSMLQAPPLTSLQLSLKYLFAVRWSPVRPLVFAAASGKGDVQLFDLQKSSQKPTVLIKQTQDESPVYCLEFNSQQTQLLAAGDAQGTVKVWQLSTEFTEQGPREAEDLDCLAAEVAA
UniProt Q5MNZ9: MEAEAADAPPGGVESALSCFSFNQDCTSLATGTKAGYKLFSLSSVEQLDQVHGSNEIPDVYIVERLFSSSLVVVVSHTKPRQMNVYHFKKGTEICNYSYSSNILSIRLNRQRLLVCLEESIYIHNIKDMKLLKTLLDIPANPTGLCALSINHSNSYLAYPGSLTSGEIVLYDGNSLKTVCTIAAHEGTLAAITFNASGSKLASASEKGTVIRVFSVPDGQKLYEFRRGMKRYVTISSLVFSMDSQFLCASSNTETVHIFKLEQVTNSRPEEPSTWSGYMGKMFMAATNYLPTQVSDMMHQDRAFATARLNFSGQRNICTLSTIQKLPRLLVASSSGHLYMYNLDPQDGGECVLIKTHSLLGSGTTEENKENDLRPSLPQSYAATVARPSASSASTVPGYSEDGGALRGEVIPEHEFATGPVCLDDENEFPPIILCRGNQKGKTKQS

These targets were tested with Cc1ccc(NC(=O)c2ccc(CN3CC[C@H](N(C)C)C3)c(C(F)(F)F)c2)cc1Nc1nccc(-c2cncnc2)n1 [bafetinib] (assay: log2 fold change, soluble protein after heating vs DMSO (PISA); higher = thermal stabilisation; K562 cells, 10 uM, 30 min; active = over 0.2 and 3.5 SD of the protein, either way, in both replicates (recomputed)).
In short: (§1)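 K562 cells at 2×10^6 cells/mL were exposed to 10 μM compound for 30 min, then aliquots were heated for 3 min across 48°C-58°C, pooled, and extracted in PBS containing 0.5% NP-40 at 4°C. The supernatant after 21,000xg for 90 min was taken as soluble protein and measured by TMTpro 16plex LC-MS/MS with channel sums equalised. Thermal stability is reported relative to control samples, with values from duplicates. Fold changes are given on a log2 scale.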

log2 fold change, inactive:
WDR61 (UniProt Q9GZS3) -0.01
WDR36 (UniProt Q8NI36) 0.075
WDR44 (UniProt Q5JSH3) -0.023
WDR13 (UniProt Q9H1Z4) -0.018
WASL (UniProt O00401) 0.011
WDR74 (UniProt Q6RFH5) 0.076
WASHC2A (UniProt Q641Q2) -0.078
WARS (UniProt P23381) -0.031
WASHC4 (UniProt Q2M389) -0.083
WDFY1 (UniProt Q8IWB7) -0.115
VPS13C (UniProt Q709C8) -0.115
WBP11 (UniProt Q9Y2W2) -0.034
WDR45B (UniProt Q5MNZ6) -0.031
VPS35 (UniProt Q96QK1) -0.066
WDR77 (UniProt Q9BQA1) -0.001
WDR5 (UniProt P61964) 0.088
WASF2 (UniProt Q9Y6W5) -0.034
VRK3 (UniProt Q8IV63) -0.028
WDR89 (UniProt Q96FK6) -0.016
WRAP73 (UniProt Q9P2S5) -0.042
VDAC3 (UniProt Q9Y277) -0.049
WDR6 (UniProt Q9NNW5) -0.007
WDR20 isoform 7 (UniProt Q8TBZ3) -0.063
WIPF3 (UniProt A6NGB9) -0.042
WRAP53 (UniProt Q9BUR4) -0.022
WDR45 (UniProt Q9Y484) -0.049
VTN (UniProt P04004) 0.044
VPS4B (UniProt O75351) -0.078
VWA5A (UniProt O00534) -0.108
WIZ (UniProt O95785) -0.036
VEZF1 (UniProt Q14119) 0.176
WDR34 (UniProt Q96EX3) 0.005
WDR70 (UniProt Q9NW82) -0.039
WIPI1 (UniProt Q5MNZ9) -0.164

Each target was assayed with Cc1cccc(CC(=O)N2CCc3c2ccc(-c2cn(C)c4ncnc(N)c24)c3F)n1 in the same assay as above.
In short: as §1

log2 fold change, inactive:
WDR61 (UniProt Q9GZS3) -0.033
WDR36 (UniProt Q8NI36) -0.015
WDR44 (UniProt Q5JSH3) -0.005
WDR13 (UniProt Q9H1Z4) -0.059
WASL (UniProt O00401) -0.057
WDR74 (UniProt Q6RFH5) -0.01
WASHC2A (UniProt Q641Q2) -0.025
WARS (UniProt P23381) -0.022
WASHC4 (UniProt Q2M389) -0.067
WDFY1 (UniProt Q8IWB7) -0.02
VPS13C (UniProt Q709C8) 0.041
WBP11 (UniProt Q9Y2W2) 0.022
WDR45B (UniProt Q5MNZ6) 0.046
VPS35 (UniProt Q96QK1) 0.032
WDR77 (UniProt Q9BQA1) 0.001
WDR5 (UniProt P61964) -0.108
WASF2 (UniProt Q9Y6W5) -0.025
VRK3 (UniProt Q8IV63) 0.047
WDR89 (UniProt Q96FK6) -0.001
WRAP73 (UniProt Q9P2S5) -0.04
VDAC3 (UniProt Q9Y277) -0.044
WDR6 (UniProt Q9NNW5) 0.078
WDR20 isoform 7 (UniProt Q8TBZ3) -0.108
WIPF3 (UniProt A6NGB9) 0.075
WRAP53 (UniProt Q9BUR4) -0.007
WDR45 (UniProt Q9Y484) 0.039
VPS4B (UniProt O75351) 0.037
VWA5A (UniProt O00534) -0.009
WIZ (UniProt O95785) 0.013
VEZF1 (UniProt Q14119) 0.057
WDR34 (UniProt Q96EX3) -0.043
WDR70 (UniProt Q9NW82) 0.009
WIPI1 (UniProt Q5MNZ9) 0.058

What follows are targets tested with Cc1cn(-c2cc(NC(=O)c3ccc(C)c(Nc4nccc(-c5cccnc5)n4)c3)cc(C(F)(F)F)c2)cn1 [nilotinib] in the same assay as above.
In short: as §1

log2 fold change, inactive:
WDR61 (UniProt Q9GZS3) -0.018
WDR36 (UniProt Q8NI36) 0.024
WDR44 (UniProt Q5JSH3) 0.002
WDR13 (UniProt Q9H1Z4) -0.11
WASL (UniProt O00401) 0.067
WDR74 (UniProt Q6RFH5) -0.027
WASHC2A (UniProt Q641Q2) 0.002
WARS (UniProt P23381) 0.023
WASHC4 (UniProt Q2M389) -0.122
WDFY1 (UniProt Q8IWB7) -0.012
VPS13C (UniProt Q709C8) -0.024
WBP11 (UniProt Q9Y2W2) 0.008
WDR45B (UniProt Q5MNZ6) 0.01
VPS35 (UniProt Q96QK1) -0.016
WDR77 (UniProt Q9BQA1) -0.012
WDR5 (UniProt P61964) -0.022
WASF2 (UniProt Q9Y6W5) 0.012
VRK3 (UniProt Q8IV63) -0.04
WDR89 (UniProt Q96FK6) 0.024
WRAP73 (UniProt Q9P2S5) -0.01
VDAC3 (UniProt Q9Y277) -0.009
WDR6 (UniProt Q9NNW5) -0.017
WDR20 isoform 7 (UniProt Q8TBZ3) -0.085
WIPF3 (UniProt A6NGB9) 0.009
WRAP53 (UniProt Q9BUR4) 0.156
WDR45 (UniProt Q9Y484) 0.001
VTN (UniProt P04004) 0.076
VPS4B (UniProt O75351) -0.024
VWA5A (UniProt O00534) 0.006
WIZ (UniProt O95785) -0.011
VEZF1 (UniProt Q14119) -0.019
WDR34 (UniProt Q96EX3) -0.065
WDR70 (UniProt Q9NW82) -0.009
WIPI1 (UniProt Q5MNZ9) 0.026
